Data published in the supplement of paper PMC10849652.
The other results are listed elsewhere or left out.

Chains of the proteins cited; added tags and fusions are not shown. Lines headed by an entry give the natural chain unless they say otherwise; changes in a name come on top.
UniProt P10242: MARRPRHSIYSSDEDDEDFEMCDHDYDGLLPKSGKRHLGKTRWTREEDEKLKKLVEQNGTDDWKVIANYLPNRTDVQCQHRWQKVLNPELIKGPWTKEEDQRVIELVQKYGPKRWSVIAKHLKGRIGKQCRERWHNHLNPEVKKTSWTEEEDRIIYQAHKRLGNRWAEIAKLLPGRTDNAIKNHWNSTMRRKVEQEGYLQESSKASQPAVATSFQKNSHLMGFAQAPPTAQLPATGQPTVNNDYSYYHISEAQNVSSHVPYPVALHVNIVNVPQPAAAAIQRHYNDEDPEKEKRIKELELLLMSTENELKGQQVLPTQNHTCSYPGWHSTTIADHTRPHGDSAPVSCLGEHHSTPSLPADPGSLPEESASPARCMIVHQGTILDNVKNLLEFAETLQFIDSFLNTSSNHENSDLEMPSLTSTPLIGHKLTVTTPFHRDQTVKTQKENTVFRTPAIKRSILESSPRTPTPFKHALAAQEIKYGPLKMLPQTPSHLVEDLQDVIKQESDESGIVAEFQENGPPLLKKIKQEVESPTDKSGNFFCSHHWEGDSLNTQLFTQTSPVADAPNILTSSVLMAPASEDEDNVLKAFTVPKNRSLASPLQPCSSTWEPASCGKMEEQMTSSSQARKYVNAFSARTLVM
UniProt Q14CX7, whole entry, looked up: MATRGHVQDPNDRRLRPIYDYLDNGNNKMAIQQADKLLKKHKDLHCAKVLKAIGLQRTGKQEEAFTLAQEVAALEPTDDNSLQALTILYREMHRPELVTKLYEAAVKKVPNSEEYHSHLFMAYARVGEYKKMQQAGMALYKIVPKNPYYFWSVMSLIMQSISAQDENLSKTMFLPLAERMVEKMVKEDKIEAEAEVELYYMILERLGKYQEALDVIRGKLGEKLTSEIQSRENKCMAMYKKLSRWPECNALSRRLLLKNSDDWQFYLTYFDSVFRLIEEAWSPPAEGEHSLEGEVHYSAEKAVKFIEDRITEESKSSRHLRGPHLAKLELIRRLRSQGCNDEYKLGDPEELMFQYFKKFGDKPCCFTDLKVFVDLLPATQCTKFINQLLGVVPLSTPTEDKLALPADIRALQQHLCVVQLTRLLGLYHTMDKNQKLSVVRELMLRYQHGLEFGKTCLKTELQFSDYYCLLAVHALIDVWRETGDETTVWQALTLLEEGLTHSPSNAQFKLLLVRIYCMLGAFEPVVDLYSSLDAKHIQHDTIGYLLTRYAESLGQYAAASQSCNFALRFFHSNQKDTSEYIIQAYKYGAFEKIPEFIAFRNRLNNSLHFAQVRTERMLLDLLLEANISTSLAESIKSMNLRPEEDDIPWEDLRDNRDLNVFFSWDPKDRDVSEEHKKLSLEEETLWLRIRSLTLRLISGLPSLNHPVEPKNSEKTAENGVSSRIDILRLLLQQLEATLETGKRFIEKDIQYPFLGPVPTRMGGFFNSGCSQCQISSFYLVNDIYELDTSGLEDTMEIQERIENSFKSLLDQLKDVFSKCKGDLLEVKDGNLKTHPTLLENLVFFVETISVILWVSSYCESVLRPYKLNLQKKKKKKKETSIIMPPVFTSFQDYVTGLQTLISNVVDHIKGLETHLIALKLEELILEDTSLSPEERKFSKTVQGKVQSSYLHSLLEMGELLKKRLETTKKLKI
UniProt P42695: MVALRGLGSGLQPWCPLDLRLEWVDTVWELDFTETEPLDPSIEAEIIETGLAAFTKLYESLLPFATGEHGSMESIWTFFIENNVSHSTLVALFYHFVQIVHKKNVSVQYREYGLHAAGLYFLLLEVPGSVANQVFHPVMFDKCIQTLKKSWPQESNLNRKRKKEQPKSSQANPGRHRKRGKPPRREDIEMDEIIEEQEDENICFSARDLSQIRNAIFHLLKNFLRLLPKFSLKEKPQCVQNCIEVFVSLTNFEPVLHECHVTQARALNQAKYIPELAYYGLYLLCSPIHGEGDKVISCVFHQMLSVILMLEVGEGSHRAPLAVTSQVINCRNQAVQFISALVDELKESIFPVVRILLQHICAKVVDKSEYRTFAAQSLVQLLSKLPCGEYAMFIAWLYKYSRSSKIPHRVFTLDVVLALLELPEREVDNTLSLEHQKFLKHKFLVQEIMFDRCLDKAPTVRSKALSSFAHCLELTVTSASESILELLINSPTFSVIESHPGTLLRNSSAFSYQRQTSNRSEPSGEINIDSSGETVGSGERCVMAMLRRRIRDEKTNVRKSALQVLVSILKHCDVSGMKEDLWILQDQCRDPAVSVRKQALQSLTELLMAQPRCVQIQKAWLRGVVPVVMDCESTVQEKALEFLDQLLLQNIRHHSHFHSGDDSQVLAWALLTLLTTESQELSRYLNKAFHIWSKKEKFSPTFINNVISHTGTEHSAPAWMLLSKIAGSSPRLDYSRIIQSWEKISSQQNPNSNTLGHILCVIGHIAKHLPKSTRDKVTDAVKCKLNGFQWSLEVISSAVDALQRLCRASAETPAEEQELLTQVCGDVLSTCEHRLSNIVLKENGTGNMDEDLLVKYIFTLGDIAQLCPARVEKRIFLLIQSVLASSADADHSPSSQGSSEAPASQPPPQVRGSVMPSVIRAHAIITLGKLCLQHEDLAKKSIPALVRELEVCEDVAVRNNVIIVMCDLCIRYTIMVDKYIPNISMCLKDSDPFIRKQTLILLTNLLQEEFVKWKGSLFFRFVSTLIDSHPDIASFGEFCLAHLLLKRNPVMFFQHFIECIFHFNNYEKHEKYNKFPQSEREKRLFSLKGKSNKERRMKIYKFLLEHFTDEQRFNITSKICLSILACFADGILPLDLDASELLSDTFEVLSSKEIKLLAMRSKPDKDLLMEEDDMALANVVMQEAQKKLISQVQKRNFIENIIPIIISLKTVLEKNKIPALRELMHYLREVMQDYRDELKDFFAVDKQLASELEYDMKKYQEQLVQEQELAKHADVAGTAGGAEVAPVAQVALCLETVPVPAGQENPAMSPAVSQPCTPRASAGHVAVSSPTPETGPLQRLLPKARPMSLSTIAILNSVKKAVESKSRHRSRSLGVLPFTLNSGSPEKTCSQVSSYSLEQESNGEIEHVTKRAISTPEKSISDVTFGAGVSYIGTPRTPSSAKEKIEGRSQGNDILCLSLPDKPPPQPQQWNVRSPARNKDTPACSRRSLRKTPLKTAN
UniProt O43776: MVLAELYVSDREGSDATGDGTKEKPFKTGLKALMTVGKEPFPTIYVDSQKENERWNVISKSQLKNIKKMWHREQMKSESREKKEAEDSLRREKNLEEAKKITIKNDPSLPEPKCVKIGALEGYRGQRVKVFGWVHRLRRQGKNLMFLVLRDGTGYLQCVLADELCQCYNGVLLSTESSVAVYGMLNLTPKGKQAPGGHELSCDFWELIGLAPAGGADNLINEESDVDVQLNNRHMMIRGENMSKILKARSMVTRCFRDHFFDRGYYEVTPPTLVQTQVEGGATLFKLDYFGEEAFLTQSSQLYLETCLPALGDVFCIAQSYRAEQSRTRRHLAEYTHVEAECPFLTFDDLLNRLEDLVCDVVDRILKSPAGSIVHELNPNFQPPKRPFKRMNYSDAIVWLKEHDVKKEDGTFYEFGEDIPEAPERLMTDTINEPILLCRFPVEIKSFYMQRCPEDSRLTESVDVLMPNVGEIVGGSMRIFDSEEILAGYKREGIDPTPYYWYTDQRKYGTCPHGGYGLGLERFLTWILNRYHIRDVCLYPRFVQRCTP
UniProt Q9Y2A7: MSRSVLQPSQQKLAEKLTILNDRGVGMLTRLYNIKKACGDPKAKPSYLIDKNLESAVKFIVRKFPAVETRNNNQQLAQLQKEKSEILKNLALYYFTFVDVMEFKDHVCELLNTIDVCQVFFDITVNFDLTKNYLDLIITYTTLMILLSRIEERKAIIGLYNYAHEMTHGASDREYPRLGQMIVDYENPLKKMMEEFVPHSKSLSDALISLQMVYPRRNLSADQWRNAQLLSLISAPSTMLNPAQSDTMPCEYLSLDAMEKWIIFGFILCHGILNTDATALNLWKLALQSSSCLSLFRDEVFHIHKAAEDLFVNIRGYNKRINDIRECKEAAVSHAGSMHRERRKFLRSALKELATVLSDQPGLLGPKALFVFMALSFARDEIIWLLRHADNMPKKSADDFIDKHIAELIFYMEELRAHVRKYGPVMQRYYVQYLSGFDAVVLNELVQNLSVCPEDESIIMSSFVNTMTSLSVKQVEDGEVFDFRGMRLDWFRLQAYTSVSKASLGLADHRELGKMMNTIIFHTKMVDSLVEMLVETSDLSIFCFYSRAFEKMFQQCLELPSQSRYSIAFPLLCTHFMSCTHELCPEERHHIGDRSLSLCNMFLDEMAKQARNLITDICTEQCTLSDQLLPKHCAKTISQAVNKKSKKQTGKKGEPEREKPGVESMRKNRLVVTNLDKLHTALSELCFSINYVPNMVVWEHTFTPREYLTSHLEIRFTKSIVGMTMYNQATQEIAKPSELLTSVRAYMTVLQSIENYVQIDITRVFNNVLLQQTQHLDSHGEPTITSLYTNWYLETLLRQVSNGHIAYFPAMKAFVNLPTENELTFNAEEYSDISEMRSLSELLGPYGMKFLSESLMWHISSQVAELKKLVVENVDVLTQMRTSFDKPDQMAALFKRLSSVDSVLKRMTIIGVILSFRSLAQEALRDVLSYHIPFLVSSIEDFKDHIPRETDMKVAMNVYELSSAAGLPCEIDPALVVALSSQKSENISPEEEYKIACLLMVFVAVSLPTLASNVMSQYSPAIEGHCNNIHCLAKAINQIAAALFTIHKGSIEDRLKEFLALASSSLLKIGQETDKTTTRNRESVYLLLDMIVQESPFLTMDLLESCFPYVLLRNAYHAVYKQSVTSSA
UniProt Q9GZZ1: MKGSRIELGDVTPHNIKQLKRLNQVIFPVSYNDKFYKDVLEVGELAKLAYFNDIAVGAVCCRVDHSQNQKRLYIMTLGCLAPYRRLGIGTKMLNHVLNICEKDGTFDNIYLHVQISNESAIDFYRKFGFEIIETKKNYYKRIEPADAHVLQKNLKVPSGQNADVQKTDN

Assays:
Test in all cases: log2 fold change, soluble protein after heating vs DMSO (PISA); higher = thermal stabilisation; K562 lysate, 10 uM; active = over 0.2 and 3.5 SD of the protein, either way, in both replicates (recomputed)
ibrutinib = compound: C=CC(=O)N1CCC[C@@H](n2nc(-c3ccc(Oc4ccccc4)cc3)c3c(N)ncnc32)C1 [ibrutinib]
Summary of the method: (§1)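 Thermal stability, expressed as log-two fold change relative to solvent controls, is given from duplicates. Crude K562 extract in PBS pH 7.4 with 1 mM MgCl2, at 1 mg/mL protein, was treated with 10 μM compound for 30 min and heated in aliquots for 3 min across 48°C-58°C. After pooling, adjustment to 0.5% NP-40 at 4°C and centrifugation at 21,000xg for 90 min, supernatant protein was measured by TMTpro 16plex LC-MS/MS with channel sums equalised.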

[1] = compound: CC(=O)c1cnc2ccc(-c3cc(Cl)c(O)c(Cl)c3)nc2c1N[C@H]1CC[C@H](CN(C)C)CC1
Summary of the method: as §1

ralimetinib = compound: CC(C)(C)Cn1c(N)nc2ccc(-c3[nH]c(C(C)(C)C)nc3-c3ccc(F)cc3)nc21 [ralimetinib]
Summary of the method: as §1

[2] = compound: CC(C)(O)CC(=O)NCCn1ccc2ncnc(Nc3ccc(Oc4cccc(C(F)(F)F)c4)c(Cl)c3)c21
Summary of the method: as §1

[3] = compound: CC(C)C1=C2N=C(C=C(N2N=C1)NCC3=CC=CC=C3)NCCCCCCN
Summary of the method: as §1

[4] = compound: CC1=C(C(CC(=O)N1)C2=CC=C(C=C2)C(F)(F)F)C(=O)NC3=C(C=C4C(=C3)C=NN4)F
Summary of the method: as §1

[5] = compound: CC1=C(C2=C(C=C1)C(=O)C3=CC=CC=C3N2CCCN)C
Summary of the method: as §1

[6] = compound: CC1=C(C=C(C=C1)NC(=O)C2=CC(=CC=C2)C(C)(C)C#N)NC3=CC4=C(C=C3)N=CN(C4=O)C
Summary of the method: as §1

[7] = compound: CC1=C(C=C(C=C1)NC(=O)C2=CC(=CC=C2)N(C)C)NC(=O)C3=CC=C(C=C3)O
Summary of the method: as §1

[8] = compound: CC1=CC=C(C=C1)SC2=C3C=C(SC3=CN=C2)C(=O)N
Summary of the method: as §1

vemurafenib = compound: CCCS(=O)(=O)Nc1ccc(F)c(C(=O)c2c[nH]c3ncc(-c4ccc(Cl)cc4)cc23)c1F [vemurafenib]
Summary of the method: as §1

[9] = compound: CCCS(=O)(=O)Nc1ccc(F)c(C(=O)c2c[nH]c3ncc(Cl)cc23)c1F
Summary of the method: as §1

barasertib = compound: CCN(CCCOc1ccc2c(Nc3cc(CC(=O)Nc4cccc(F)c4)[nH]n3)ncnc2c1)CCOP(=O)(O)O [barasertib]
Summary of the method: as §1

[10] = compound: CC[C@@H]1C(=O)N(C)c2cnc(Nc3ccc(C(=O)NC4CCN(C)CC4)cc3OC)nc2N1C1CCCC1
Summary of the method: as §1

volasertib = compound: CC[C@@H]1C(=O)N(C)c2cnc(Nc3ccc(C(=O)N[C@H]4CC[C@H](N5CCN(CC6CC6)CC5)CC4)cc3OC)nc2N1C(C)C [volasertib]
Summary of the method: as §1

[11] = compound: CCn1c(C(=O)N(C2CC2)C2CC2)cc2c3c(ncn3C)c(Nc3cc(C)n(C)n3)nc21
Summary of the method: as §1

[12] = compound: CCn1cc(-c2ccnc3[nH]c(-c4cccc(CN(C)C)c4)cc23)c(-c2ccc(NC(=O)N(C)C)cc2)n1
Summary of the method: as §1

[13] = compound: CN1CCC(CNc2ccc3ncc(-c4cccc(OC(F)(F)F)c4)n3n2)CC1
Summary of the method: as §1

saracatinib = compound: CN1CCN(CCOc2cc(OC3CCOCC3)c3c(Nc4c(Cl)ccc5c4OCO5)ncnc3c2)CC1 [saracatinib]
Summary of the method: as §1

sotrastaurin = compound: CN1CCN(c2nc(C3=C(c4c[nH]c5ccccc45)C(=O)NC3=O)c3ccccc3n2)CC1 [sotrastaurin]
Summary of the method: as §1

Measured: log2 fold change

MYB isoform 4 (UniProt P10242)
inactive: ibrutinib 0.003 | [1] 0.035 | ralimetinib 0.074 | [2] -0.013 | [3] 0.011 | [4] 0.07 | [5] -0.001 | [6] -0.032 | [7] -0.051 | [8] -0.036 | vemurafenib -0.126 | [9] 0.02 | barasertib 0.013 | [10] -0.058 | volasertib -0.038 | [11] 0.058 | [12] 0.332 | [13] -0.074 | saracatinib -0.071 | sotrastaurin 0.069

NAA25 (UniProt Q14CX7)
inactive: ibrutinib 0.014 | [1] 0.005 | ralimetinib 0.011 | [2] -0.002 | [3] -0.034 | [4] 0.008 | [5] 0.02 | [6] -0.024 | [7] 0.007 | [8] -0.004 | vemurafenib -0.014 | [9] 0.009 | barasertib -0.01 | [10] -0.019 | volasertib -0.044 | [11] 0.018 | [12] 0.042 | [13] -0.037 | saracatinib 0.019 | sotrastaurin -0.016

NCAPD3 (UniProt P42695)
inactive: ibrutinib 0.001 | [1] -0.017 | ralimetinib 0.043 | [2] -0.019 | [3] -0.008 | [4] 0.007 | [5] -0.024 | [6] -0.012 | [7] 0.036 | [8] -0.012 | vemurafenib -0.032 | [9] 0.047 | barasertib 0.06 | [10] -0.013 | volasertib -0.088 | [11] 0.035 | [12] 0.068 | [13] -0.015 | saracatinib 0.008 | sotrastaurin 0.003

NARS1 (UniProt O43776)
inactive: ibrutinib -0.006 | [1] 0.009 | ralimetinib 0 | [2] -0.006 | [3] 0.026 | [4] -0.039 | [5] 0.003 | [6] 0.007 | [7] 0.01 | [8] 0.01 | vemurafenib -0.004 | [9] -0.005 | barasertib -0.027 | [10] -0.016 | volasertib -0.036 | [11] 0.011 | [12] 0.02 | [13] 0.018 | saracatinib 0.012 | sotrastaurin 0.003

N4BP2 (UniProt Q86UW6)
active: [12] -0.336
inactive: ibrutinib 0.094 | [1] -0.041 | ralimetinib 0.038 | [2] -0.053 | [3] 0.047 | [4] 0.03 | [5] -0.011 | [6] -0.005 | [7] -0.034 | [8] -0.027 | vemurafenib -0.001 | [9] 0.052 | barasertib -0.018 | [10] 0.029 | volasertib -0.014 | [11] 0 | [13] 0.029 | saracatinib 0.018 | sotrastaurin 0.05

NCKAP1 isoform 2 (UniProt Q9Y2A7)
inactive: ibrutinib 0.007 | [1] -0.008 | ralimetinib 0.001 | [2] -0.007 | [3] -0.016 | [4] 0.007 | [5] 0.006 | [6] 0.008 | [7] 0.005 | [8] 0.023 | vemurafenib -0.014 | [9] 0 | barasertib -0.007 | [10] -0.011 | volasertib -0.028 | [11] 0.021 | [12] 0.029 | [13] -0.016 | saracatinib -0.008 | sotrastaurin 0.01

NAA50 (UniProt Q9GZZ1)
inactive: ibrutinib -0.011 | [1] -0.004 | ralimetinib -0.029 | [2] 0.007 | [3] -0.01 | [4] -0.012 | [5] 0.005 | [6] 0.009 | [7] -0.024 | [8] 0.033 | vemurafenib -0.002 | [9] 0.009 | barasertib -0.004 | [10] 0.017 | volasertib -0.005 | [11] 0.054 | [12] -0.062 | [13] 0.014 | saracatinib -0.004 | sotrastaurin 0.019
